From US9907306B2, “Compositions and methods for controlling nematode pests” (Monsanto Technology LLC, priority 2010, dated 2018)
“And” between values parts separate entries of the source, which are not always exact repeats. Identical values can stand only once. The name of at least one read-out is uncertain.

Tested on: Meloidogyne incognita
Assay: M. incognita miniaturized greenhouse assay (cucumber seedling in sand, root galling)
Assay type: in vivo
Conditions: 1 ppm, average of triplicate gall rating, scale 0=0-5%, 1=6-20%, 2=21-50%, 3=51-100% root mass galled, 10 to 12 days after inoculation, letters a-d mark separate tests
Method: The test compound is dissolved in an acetone solution and added to water. A sprouted cucumber seedling is placed into a vial with dry sand and the water-chemical solution is added immediately. Twenty four hours later Meloidogyne incognita eggs are added to the vials and 10 to 12 days later the roots are evaluated for nematode galling.
Cucumber seeds are sprouted for 3 days in moist paper towels. Acceptable sprouts should be 3 to 4 cm long with several lateral roots just emerging. Stock solutions of chemistry are prepared in a mixture of acetone and Triton X100 (412 mg in 500 mL) to a final concentration of 5 mg/mL. The chemical stock solution is then added to 10 mL deionized water plus 0.015% Triton X100 and mixed thoroughly. This is enough to test each condition in triplicate. Ten mL dry sand is added to each vial. At this time the solubility of the chemistry is visually determined and recorded as either ppt (large precipitates) or cloudy (fine precipitates). Seedlings are planted by tilting the vial and laying the seedling in the correct orientation so that the cotyledons are just above the sand and then tilting back to cover the radicles with sand. […] The average of the triplicate gall rating is then calculated: green=0.00-0.33 (no galls); yellow=0.67-1.33 (mild galling); orange=1.67-2.33 (moderate galling); red=2.67-3.00 (severe galling). […]

CNC(=O)O/N=C(\SC)C(=O)N(C)C [Oxamyl, reference compound]
gall ratings: 1.33 and 0.67
